No constants are given. Whether binding was seen depends on the method and setting. In cells and extracts the contact can be indirect. Binding calls can cover weak binding; strength is not graded here.
Key:
[1] = target: High-Motility Group Box-1 (HMGB1), human plasma (human (endogenous in human plasma)) (UniProt P09429); assay: co-IP; Catch and Release kit (Millipore) spin column; 500 μg of plasma sample with anti-HMGB1 antibody and antibody capture affinity ligand for 30 minutes; washes, elution; flow through and eluate blotted for HMGB1 and IL-1β; mouse or human plasma, control and burn
[2] = target: High-Motility Group Box-1 (HMGB1), mouse plasma (mouse (endogenous in mouse plasma)) (UniProt P63158); assay: as above

By UniProt entry, the sequences of proteins in these tests, tags left out. Where a name states a change or a piece, a line headed by the entry shows the natural chain unless it says otherwise.
UniProt P09429: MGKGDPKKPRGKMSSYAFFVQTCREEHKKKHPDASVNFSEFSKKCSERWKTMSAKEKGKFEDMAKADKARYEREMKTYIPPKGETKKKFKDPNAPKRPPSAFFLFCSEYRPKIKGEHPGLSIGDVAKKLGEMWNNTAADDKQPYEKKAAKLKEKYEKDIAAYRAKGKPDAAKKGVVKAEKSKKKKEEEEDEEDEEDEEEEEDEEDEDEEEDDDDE
UniProt P63158: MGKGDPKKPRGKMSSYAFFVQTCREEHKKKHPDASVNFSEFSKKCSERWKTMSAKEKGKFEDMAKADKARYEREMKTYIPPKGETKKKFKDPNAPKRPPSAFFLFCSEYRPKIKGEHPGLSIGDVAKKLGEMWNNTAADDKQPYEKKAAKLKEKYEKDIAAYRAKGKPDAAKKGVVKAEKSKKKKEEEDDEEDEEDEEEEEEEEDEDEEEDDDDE
UniProt P01584: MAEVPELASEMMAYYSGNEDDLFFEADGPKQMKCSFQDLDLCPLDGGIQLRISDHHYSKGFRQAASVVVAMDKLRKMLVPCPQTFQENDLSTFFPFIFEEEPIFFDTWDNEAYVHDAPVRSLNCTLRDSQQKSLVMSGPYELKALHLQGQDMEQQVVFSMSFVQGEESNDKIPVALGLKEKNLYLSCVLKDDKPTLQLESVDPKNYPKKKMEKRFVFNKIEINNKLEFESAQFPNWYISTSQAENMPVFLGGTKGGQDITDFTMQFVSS
UniProt P10749: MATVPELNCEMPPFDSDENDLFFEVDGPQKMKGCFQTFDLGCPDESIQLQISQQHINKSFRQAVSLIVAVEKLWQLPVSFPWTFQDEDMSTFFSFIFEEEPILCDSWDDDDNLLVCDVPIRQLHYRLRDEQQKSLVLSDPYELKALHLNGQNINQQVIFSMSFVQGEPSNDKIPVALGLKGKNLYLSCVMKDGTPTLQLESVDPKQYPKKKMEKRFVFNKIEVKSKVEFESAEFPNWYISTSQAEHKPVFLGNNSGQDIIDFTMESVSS

| binding [1] | binding [2] | Substance |
| --- | --- | --- |
| binds |  | pro-IL-1β (31kD pro-form of IL-1β), human plasma (from UniProt P01584) |
|  | binds | pro-IL-1β (31kD pro-form of IL-1β), mouse plasma (from UniProt P10749) |
